The values below come from US20100184088A1 (ONCOTHERAPY SCIENCE, published 2010).

Assay [1] has as its target T1, Flag-tagged VEGFR1#1 (codons 800-1000) (human) (UniProt P17948).
T1 sequence: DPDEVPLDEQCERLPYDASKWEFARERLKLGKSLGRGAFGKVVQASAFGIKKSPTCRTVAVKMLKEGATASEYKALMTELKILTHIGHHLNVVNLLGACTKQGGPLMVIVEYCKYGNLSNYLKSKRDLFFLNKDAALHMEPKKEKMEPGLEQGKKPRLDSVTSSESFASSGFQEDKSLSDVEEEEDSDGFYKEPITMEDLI
Put plainly: co-immunoprecipitation in HEK293 cells (IP anti-HA / blot anti-Flag, and IP anti-Flag / blot anti-HA).

The target in assay [2] is endogenous VEGFR1 (human) (UniProt P17948). Description: co-immunoprecipitation from whole cell extracts of SNU423, SW480 and MCF7 cells (IP anti-SMYD3, blot anti-VEGFR-1).
Assay [3] has the same target. Description: co-immunoprecipitation from extracts of SNU423, SW480 or MCF7 cells (IP anti-SMYD3, blot anti-VEGFR-1).
The target in assay [4] is T2, HA-tagged VEGFR1 (human, UniProt P17948 800-1338, limits assumed).
T2 construct: also called HA-VEGFR1; cytoplasmic domain of VEGFR1; not shown: HA tag (pCMV-HA vector)
T2 sequence: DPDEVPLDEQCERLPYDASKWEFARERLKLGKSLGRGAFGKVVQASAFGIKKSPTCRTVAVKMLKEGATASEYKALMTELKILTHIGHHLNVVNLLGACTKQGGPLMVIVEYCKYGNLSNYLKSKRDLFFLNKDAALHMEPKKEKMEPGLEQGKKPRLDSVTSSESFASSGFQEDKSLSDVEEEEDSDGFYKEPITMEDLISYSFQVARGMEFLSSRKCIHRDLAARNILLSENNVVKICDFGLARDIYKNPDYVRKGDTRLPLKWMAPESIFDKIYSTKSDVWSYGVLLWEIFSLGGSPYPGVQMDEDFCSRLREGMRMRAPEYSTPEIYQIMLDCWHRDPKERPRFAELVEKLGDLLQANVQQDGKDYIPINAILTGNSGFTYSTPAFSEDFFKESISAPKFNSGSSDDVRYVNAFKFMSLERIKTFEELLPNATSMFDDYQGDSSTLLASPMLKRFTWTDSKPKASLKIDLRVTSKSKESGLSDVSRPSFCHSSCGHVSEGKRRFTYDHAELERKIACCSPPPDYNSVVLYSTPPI
Put plainly: co-immunoprecipitation in HEK293 cells (anti-HA or anti-Flag IP, western blot). On the technique in general: In western blotting, separated proteins are transferred to a membrane and probed.

The target of assay [5] is T2, HA-tagged VEGFR1. Description: co-immunoprecipitation in HEK293 cells (anti-Flag or anti-HA IP, western blot anti-HA).

No constants are given. Whether binding was seen depends on the method and setting. In cells and extracts the contact can be indirect. Some results given as binding are weak or reduced against the parent protein; the word gives no strength. For some of these results: Tags and fused reporters may be left off the sequences shown.

B1: HA-tagged SMYD3 (enzyme, not shown: small tags and cut ends)
chain: MEPLKVEKFATANRGNGLRAVTPLRPGELLFRSDPLAYTVCKGSRGVVCDRCLLGKEKLMRCSQCRVAKYCSAKCQKKAWPDHKRECKCLKSCKPRYPPDSVRLLGRVVFKLMDGAPSESEKLYSFYDLESNINKLTEDKKEGLRQLVMTFQHFMREEIQDASQLPPAFDLFEAFAKVICNSFTICNAEMQEVGVGLYPSISLLNHSCDPNCSIVFNGPHLLLRAVRDIEVGEELTICYLDMLMTSEERRKQLRDQYCFECDCFRCQTQDKDADMLTGDEQVWKEVQESLKKIEELKAHWKWEQVLAMCQAIISSNSERLPDINIYQLKVLDCAMDACINLGLLEEALFYGTRTMEPYRIFFPGSHPVRGVQVMKVGKLQLHQGMFPQAMKNLRLAFDIMRVTHGREHSLIEDLILLLEECDANIRAS
For the molecule B1, in assay [1], the binding entry is given as “binds”.

B2: endogenous SMYD3 (enzyme)
chain: MEPLKVEKFATANRGNGLRAVTPLRPGELLFRSDPLAYTVCKGSRGVVCDRCLLGKEKLMRCSQCRVAKYCSAKCQKKAWPDHKRECKCLKSCKPRYPPDSVRLLGRVVFKLMDGAPSESEKLYSFYDLESNINKLTEDKKEGLRQLVMTFQHFMREEIQDASQLPPAFDLFEAFAKVICNSFTICNAEMQEVGVGLYPSISLLNHSCDPNCSIVFNGPHLLLRAVRDIEVGEELTICYLDMLMTSEERRKQLRDQYCFECDCFRCQTQDKDADMLTGDEQVWKEVQESLKKIEELKAHWKWEQVLAMCQAIISSNSERLPDINIYQLKVLDCAMDACINLGLLEEALFYGTRTMEPYRIFFPGSHPVRGVQVMKVGKLQLHQGMFPQAMKNLRLAFDIMRVTHGREHSLIEDLILLLEECDANIRAS
Regarding B2, the binding result in assay [2] and in assay [3] was “binds” throughout.

B3: Flag-tagged wild-type SMYD3 (p3XFLAG-CMV-SMYD3) (enzyme, not shown: small tags and cut ends)
chain: MEPLKVEKFATANRGNGLRAVTPLRPGELLFRSDPLAYTVCKGSRGVVCDRCLLGKEKLMRCSQCRVAKYCSAKCQKKAWPDHKRECKCLKSCKPRYPPDSVRLLGRVVFKLMDGAPSESEKLYSFYDLESNINKLTEDKKEGLRQLVMTFQHFMREEIQDASQLPPAFDLFEAFAKVICNSFTICNAEMQEVGVGLYPSISLLNHSCDPNCSIVFNGPHLLLRAVRDIEVGEELTICYLDMLMTSEERRKQLRDQYCFECDCFRCQTQDKDADMLTGDEQVWKEVQESLKKIEELKAHWKWEQVLAMCQAIISSNSERLPDINIYQLKVLDCAMDACINLGLLEEALFYGTRTMEPYRIFFPGSHPVRGVQVMKVGKLQLHQGMFPQAMKNLRLAFDIMRVTHGREHSLIEDLILLLEECDANIRAS
For the molecule B3, the binding result in assay [4] is recorded as “binds”.

B4: Flag-tagged SET domain of SMYD3 (100-250) (enzyme, not shown: small tags and cut ends)
chain: DSVRLLGRVVFKLMDGAPSESEKLYSFYDLESNINKLTEDKKEGLRQLVMTFQHFMREEIQDASQLPPAFDLFEAFAKVICNSFTICNAEMQEVGVGLYPSISLLNHSCDPNCSIVFNGPHLLLRAVRDIEVGEELTICYLDMLMTSEERR
Consider B4, for which the binding entry in assay [5] is listed as “binds”.

B5: Flag-tagged SMYD3-N20 (codons 20-428) (enzyme, not shown: small tags and cut ends)
chain: AVTPLRPGELLFRSDPLAYTVCKGSRGVVCDRCLLGKEKLMRCSQCRVAKYCSAKCQKKAWPDHKRECKCLKSCKPRYPPDSVRLLGRVVFKLMDGAPSESEKLYSFYDLESNINKLTEDKKEGLRQLVMTFQHFMREEIQDASQLPPAFDLFEAFAKVICNSFTICNAEMQEVGVGLYPSISLLNHSCDPNCSIVFNGPHLLLRAVRDIEVGEELTICYLDMLMTSEERRKQLRDQYCFECDCFRCQTQDKDADMLTGDEQVWKEVQESLKKIEELKAHWKWEQVLAMCQAIISSNSERLPDINIYQLKVLDCAMDACINLGLLEEALFYGTRTMEPYRIFFPGSHPVRGVQVMKVGKLQLHQGMFPQAMKNLRLAFDIMRVTHGREHSLIEDLILLLEECDANIRAS
In the case of B5, the binding entry in assay [4] is on record as “binds”.

B6: Flag-tagged SMYD3-delta 2 (codons 100-428) (enzyme, not shown: small tags and cut ends)
chain: DSVRLLGRVVFKLMDGAPSESEKLYSFYDLESNINKLTEDKKEGLRQLVMTFQHFMREEIQDASQLPPAFDLFEAFAKVICNSFTICNAEMQEVGVGLYPSISLLNHSCDPNCSIVFNGPHLLLRAVRDIEVGEELTICYLDMLMTSEERRKQLRDQYCFECDCFRCQTQDKDADMLTGDEQVWKEVQESLKKIEELKAHWKWEQVLAMCQAIISSNSERLPDINIYQLKVLDCAMDACINLGLLEEALFYGTRTMEPYRIFFPGSHPVRGVQVMKVGKLQLHQGMFPQAMKNLRLAFDIMRVTHGREHSLIEDLILLLEECDANIRAS
In the case of B6, in assay [4], the binding entry is “binds”.
